Source: PubChem BioAssay AID686943 (Drosophila RNAi Screening Center, 2013)
The deposit covers about 23,000 reagents; this is an unselected part of those that have a named target and a result. 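Extra replicates exist only for a retested subset of genes; insulin dose and duration not given; both raised and lowered dpERK matter.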 Not given: the amount of reagent, the time to read-out.

Screen: 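Search across the genome for regulators of signalling from receptor tyrosine kinase to ERK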 (primary screen)
Cells: Drosophila S2R+ haemocyte-like cells expressing YFP-tagged ERK (Rolled)
Knock-down reagent: long dsRNA against Drosophila genes
Challenge: insulin stimulation versus unstimulated cells; dose and duration not given
Read-out: 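Antibody staining for doubly phosphorylated ERK divided by ERK-YFP signal, as plate z-scores, in insulin-treated and untreated cells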
Scale: replicate 1, z-score of dpERK with insulin and replicate 2, z-score of dpERK with insulin: higher = more active ERK per ERK-YFP after insulin; replicate 1, z-score of dpERK under basal conditions: higher = more basal active ERK per ERK-YFP; replicate 1, z-score of ERK-YFP with insulin: higher = more YFP-tagged ERK signal

no.	gene knocked down	DRSC id	replicate 1, z-score of dpERK with insulin	replicate 2, z-score of dpERK with insulin	replicate 1, z-score of dpERK under basal conditions	replicate 1, z-score of ERK-YFP with insulin
1	ITP (GeneID 37921)	DRSC04222	-0.24	-0.75	-0.15	-0.27
2	CG6191 (GeneID 36513)	DRSC05938	-0.8	-1.84	-2.08	2.2
3	Dbct (GeneID 32441)	DRSC19951	0.34	0.42	-0.53	0.33
4	PolQ (GeneID 41571)	DRSC17006	0.15	0.4	-1.44	-0.63
5	Xpac (GeneID 31357)	DRSC18730	-0.65	0.63	0.97	0.72
6	lncRNA:CR31781 (GeneID 12798248)	DRSC02431	1.88	-0.1	0.3	-2.14
7	lncRNA:CR31781 (GeneID 12798248)	DRSC02432	-0.43	0.28	-0.82	0.44
8	CG31642 (GeneID 326149)	DRSC02919	0.55	0.59	0.33	-0.32
9	18w (GeneID 37277)	DRSC05029	0.16	-0.03	-0.49	0.06
10	Mdh1 (GeneID 34414)	DRSC02846	0.78	0.02	0.71	-1.03
11	thw (GeneID 40868)	DRSC12552	0.66	-0.69	0.63	-1.08
12	GPHR (GeneID 36682)	DRSC07075	-0.34	0.81	-0.72	3.4
13	Prosalpha5 (GeneID 36951)	DRSC07514	-1.95	-4.45	-3.22	0.24
14	Vha100-1 (GeneID 43442)	DRSC14148	1.38	-0.46	-0.19	0.63

5 entries from above, ordered by “replicate 2, z-score of dpERK with insulin”, low to high:
gene knocked down	DRSC id	replicate 1, z-score of dpERK with insulin	replicate 2, z-score of dpERK with insulin	replicate 1, z-score of dpERK under basal conditions	replicate 1, z-score of ERK-YFP with insulin
CG6191 (GeneID 36513)	DRSC05938	-0.8	-1.84	-2.08	2.2
lncRNA:CR31781 (GeneID 12798248)	DRSC02431	1.88	-0.1	0.3	-2.14
PolQ (GeneID 41571)	DRSC17006	0.15	0.4	-1.44	-0.63
Dbct (GeneID 32441)	DRSC19951	0.34	0.42	-0.53	0.33
Xpac (GeneID 31357)	DRSC18730	-0.65	0.63	0.97	0.72

Additional entries follow.
no.	gene knocked down	DRSC id	replicate 1, z-score of dpERK with insulin	replicate 2, z-score of dpERK with insulin	replicate 1, z-score of dpERK under basal conditions	replicate 1, z-score of ERK-YFP with insulin
15	Flad2 (GeneID 34759)	DRSC02531	1.19	0.54	1.42	0.08
16	CG13014 (GeneID 32626)	DRSC19533	0.54	0.17	0.51	-0.35
17	CAHbeta (GeneID 41070)	DRSC14449	-0.51	0.01	0.49	-0.25
18	Tip60 (GeneID 31362)	DRSC18661	-0.08	-1.41	-0.44	0.74
19	CG30195 (GeneID 37592)	DRSC04155	-0.43	-1.31	-0.11	0.62
20	Cad87A (GeneID 41441)	DRSC16161	1.15	0.45	0.02	-1.54
21	SP1029 (GeneID 53473)	DRSC16848	1	0.24	-0.58	-0.4
22	Gadd45 (GeneID 35646)	DRSC06033	0.25	0.45	-1.17	0.52
23	CG1896 (GeneID 43738)	DRSC15397	-0.33	0.21	0.37	0.24
24	CG42538 (GeneID 8673985)	DRSC09412	-0.08	-0.6	-0.66	0.12
25	MFS1 (GeneID 246519)	DRSC04115	0.35	-0.42	-0.22	-0.26
26	Cyp6a18 (GeneID 43304)	DRSC16632	-1.27	-0.12	-1.68	-0.77
27	ksr (GeneID 40660)	DRSC12379	-8.19	-5.9	-1.62	0.63
28	DCTN1-p150 (GeneID 39536)	DRSC11175	0.63	0.02	2.84	0.03
29	shtd (GeneID 32473)	DRSC20166	-0.57	0.13	0.65	0.1
30	alpha-Spec (GeneID 38231)	DRSC08704	-1.1	-1.18	1.25	0.64
31	rumi (GeneID 326122)	DRSC15177	-1.29	-0.86	-0.65	1.33
32	CG15145 (GeneID 35064)	DRSC02446	-0.19	-0.1	-0.53	0.24
33	eys (GeneID 3771890)	DRSC00113	-2.5	0.22	-1.29	-1.21
34	eys (GeneID 3771890)	DRSC00402	-2.06	-0.94	-0.72	0.18
35	eys (GeneID 3771890)	DRSC00403	0.63	0.18	-1.23	0.44
36	eys (GeneID 3771890)	DRSC00695	-0.2	-0.16	0.06	1.2
37	DIP-iota (GeneID 33925)	DRSC02140	-0.6	-0.12	0.89	0.42
38	CG12911 (GeneID 36081)	DRSC06226	-0.76	0.09	-0.03	0.68
39	CG7460 (GeneID 39973)	DRSC10850	-0.21	0.91	0.26	0.11
